In PMC7522779 one finds binding data, which are given here for seven molecules.

Sequences of proteins named here, by UniProt entry; tags and fusion partners are left off.
UniProt Q02647: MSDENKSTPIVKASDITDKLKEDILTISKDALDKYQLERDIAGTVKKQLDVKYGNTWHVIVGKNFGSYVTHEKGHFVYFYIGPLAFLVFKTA

Residue numbers refer to the chain shown, from its start. No constants are given. Whether binding was seen depends on the method and setting. Binding seen in cells or lysates may run through a third protein. A yes stands for co-enrichment or nearness to the bait. Other partners may have been found.

The target in test [1] is T1, Pex14p^TPA-S266A (non-phosphorylatable mutant) (S. cerevisiae) (UniProt P53112).
T1 sequence: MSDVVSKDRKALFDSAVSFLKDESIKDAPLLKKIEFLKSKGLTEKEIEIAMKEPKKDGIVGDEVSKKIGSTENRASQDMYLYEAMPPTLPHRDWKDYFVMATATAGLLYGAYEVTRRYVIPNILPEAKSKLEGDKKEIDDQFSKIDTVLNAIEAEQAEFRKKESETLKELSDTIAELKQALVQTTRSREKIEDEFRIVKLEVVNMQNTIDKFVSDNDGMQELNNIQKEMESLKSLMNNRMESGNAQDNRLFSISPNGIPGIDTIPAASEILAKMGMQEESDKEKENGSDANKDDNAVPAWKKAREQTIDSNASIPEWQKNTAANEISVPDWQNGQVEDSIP
In words: affinity purification with mass spectrometry; eluates of the IgG Sepharose purification of TPA-tagged Pex14p variants (digitonin-solubilised membranes) and a second replicate, gel-based LC-MS; iBAQ intensities normalised, Pex14p set to 100%.

For test [2], the target named is T2, Pex14p^TPA-S266D (phosphomimicking mutant) (S. cerevisiae) (UniProt P53112).
T2 sequence: T1 sequence with A266D
The description is as above.

On to Dyn2p (from UniProt Q02647 1-92), for which the binding entry in test [1] and in test [2] was “binds” throughout.

B1: Pex18p (protein, UniProt P38855 1-283)
chain: MNSNRCQTNEVNKFISSTEKGPFTGRDNTLSFNKIGSRLNSPPILKDKIELKFLQHSEDLNQSRSYVNIRPRTLEDQSYKFEAPNLNDNETSWAKDFRYNFPKNVEPPIENQIANLNINNGLRTSQTDFPLGFYSQKNFNIASFPVVDHQIFKTTGLEHPINSHIDSLINAEFSELEASSLEEDVHTEEENSGTSLEDEETAMKGLASDIIEFCDNNSANKDVKERLNSSKFMGLMGSISDGSIVLKKDNGTERNLQKHVGFCFQNSGNWAGLEFHDVEDRIA
Consider B1, for which the binding result in test [1] and in test [2] was “binds” each time.

B2: Pex17p (protein, UniProt P40155 1-199)
chain: MTSINSFPRNIDWPSNIGIKKIEGTNPTVNAIKGLLYNGGSIYAFLYFVIAMFVEPTLQKQYQQRNDFSLFVLLRLRRIIAQLQKRLVMTPVSSLGFNEQNNFVERSTQTSDDNIIREDNSHWAEMIYQLQNMKQELQYFNRSSGQPSESIDDFVFQIKMVTDQVELTDRSRAFSNKSRNIIQGIREIKGWFVNGQVPR
As for B2, the binding entry in test [1] and in test [2] was “binds” each time.

B3: Pex10p (protein, UniProt Q05568 1-337)
chain: MKNDNKLQKEALMRLSQLRFPFADAPSIVQAHQKDEQIQGLLIMKVTELCKLIKSQLFVNSYPKELSIFAKLLYLLFTTGRRGRTLGEEYVDLTYTNRKGTRLAGRLKMIVFAFAYPLCPYFITKLYKKIMKNNKESKIEDTESVAAFCKGLLDFILDVHMTLFYFKGAFYSISKRIFGMRYVFKHILSKNEANFREEGSQKYKVLGYILLAQNVMKWYPVLTSTLGSWIYGRKRTNDSITRSSVGLQERSEHESIEGIPKESQLTHINLSDKNQLPFIPEASRKCILCLMNMSDPSCAPCGHLFCWSCLMSWCKERPECPLCRQHCQPQEILVLRQ
As for B3, the binding entry in test [1] and in test [2] was “binds” each time.

B4: Pex2p (protein, UniProt P32800 1-271)
chain: MSRVAQLDSIALDKELYGQFWSEFNAAFNTSEHKEEWELALNTVVFMCATRFLPHYGSSCTYGSALSGVVFQCRKRTLYVVTVLAGYVWKKITHIIFNGPHCGNQMMWLKLYKWVNLLYHGCDVTNFLRFLAAEGPNARAFLSPLYRAFNVHSTRLIRDGSAIASEFYSNSVFAGLEYQNRQLLWNALLELFSNTLLTKRGLLTFVKKPPRSRSTTTYKTVCPRCGGFPTNPYQIACCRANYCYVCVVKALEWSMCDACGSSGRLTASPVY
Regarding B4, the binding result in test [1] and in test [2] was “binds” throughout.

B5: Pex11p (protein, UniProt Q12462 1-236)
chain: MVCDTLVYHPSVTRFVKFLDGSAGREKVLRLLQYLARFLAVQNSSLLARQLQAQFTTVRKFLRFLKPLNHLQAAAKFYDNKLASDNVVRVCNVLKNIFFAAYLSLDQVNLLRILKVIPVTVLTGKKIPRWSNWCWLFGLLSGLAMDLRKIQTSHAQIAAFVKAKSQSQGDEHEDHKKVLGKAYQDRYTALRRLFWDAADSFIVLNNLGYLSSNEEYVALSGVVTSILGMQDMWKAT
For B5, the binding result in test [1] and in test [2] was “binds” throughout.

B6: Pex12p (protein, UniProt Q04370 1-399)
chain: MSFYSNLPSAGQSSRGSSTSGRNGVGLEPLYPTIFEIMSSQEIDSLLPASIRYLLANHLVANFPNRYTLRLNKYFFEWFQAIKGFVEWYHLKTYNSTFIDRFYGLQLFSSRDRNLALTQCLNPKGQSEWPQGLQLNQQQKSVIFLEKIILPYITAKLDEILEKISMNNIFSSDETENKWPKRAFLRIYPFIKKLLALSNLLVKLLFLTKRTGSVSLLQYLFKIEYTTVRPLSSELSGLKETKGMDNRLRKTNISSIFALMQGQLSIIPRFLTFMGSQFFPTFIFVLRVYQWWTTQDMTTKLQKRVNDLDEDIPRPPFSSHSDKTEDKEGVSEACPVCEKTVQNPCVLETGYVACYPCAISYLVNNEGHCPVTNKKLLGCTYNKHTNKWEVVTGIRKLLI
Turning to B6, the binding result in test [1] and in test [2] was “binds” each time.
